# Measured values published in PMC10827313.
# For at least one entry, the source does not settle the construct or the ends of the probe. Negatives hold for the conditions tested.
# Tested on: PhDEF + PhGLO1
# Test: EMSA
# Details: EMSA with TnT wheat germ in vitro translation mixture, native acrylamide gel, as in Silva et al. 2016; pH and temperature not stated; protein translated in vitro; label: 5' Cy5 on forward primer; probe letters rebuilt from the primers and the genome
row,Sequence,binding result
1,TTCACAAACATCAAAGTTTAGCATATACAAGGTAGCTAAGCTACTTGCTCTATTCCCTAG (double strand) [AN1-bs2],no binding
2,TTTATCCCAAAATAAGTGCCTCTTTCTATATTTGGTAACTCTTTAATTCAAAAATTTGTT (double strand) [AN1-bs1],binds
